Results: publication PMC7363799
These are yes or no findings as the source states them, for the method shown. Binding seen in cells or lysates may run through a third protein. Some results given as binding are weak or reduced against the parent protein; the word gives no strength.

Sequences of proteins named here, by UniProt entry; tags and fusion partners are left off.
UniProt Q92736: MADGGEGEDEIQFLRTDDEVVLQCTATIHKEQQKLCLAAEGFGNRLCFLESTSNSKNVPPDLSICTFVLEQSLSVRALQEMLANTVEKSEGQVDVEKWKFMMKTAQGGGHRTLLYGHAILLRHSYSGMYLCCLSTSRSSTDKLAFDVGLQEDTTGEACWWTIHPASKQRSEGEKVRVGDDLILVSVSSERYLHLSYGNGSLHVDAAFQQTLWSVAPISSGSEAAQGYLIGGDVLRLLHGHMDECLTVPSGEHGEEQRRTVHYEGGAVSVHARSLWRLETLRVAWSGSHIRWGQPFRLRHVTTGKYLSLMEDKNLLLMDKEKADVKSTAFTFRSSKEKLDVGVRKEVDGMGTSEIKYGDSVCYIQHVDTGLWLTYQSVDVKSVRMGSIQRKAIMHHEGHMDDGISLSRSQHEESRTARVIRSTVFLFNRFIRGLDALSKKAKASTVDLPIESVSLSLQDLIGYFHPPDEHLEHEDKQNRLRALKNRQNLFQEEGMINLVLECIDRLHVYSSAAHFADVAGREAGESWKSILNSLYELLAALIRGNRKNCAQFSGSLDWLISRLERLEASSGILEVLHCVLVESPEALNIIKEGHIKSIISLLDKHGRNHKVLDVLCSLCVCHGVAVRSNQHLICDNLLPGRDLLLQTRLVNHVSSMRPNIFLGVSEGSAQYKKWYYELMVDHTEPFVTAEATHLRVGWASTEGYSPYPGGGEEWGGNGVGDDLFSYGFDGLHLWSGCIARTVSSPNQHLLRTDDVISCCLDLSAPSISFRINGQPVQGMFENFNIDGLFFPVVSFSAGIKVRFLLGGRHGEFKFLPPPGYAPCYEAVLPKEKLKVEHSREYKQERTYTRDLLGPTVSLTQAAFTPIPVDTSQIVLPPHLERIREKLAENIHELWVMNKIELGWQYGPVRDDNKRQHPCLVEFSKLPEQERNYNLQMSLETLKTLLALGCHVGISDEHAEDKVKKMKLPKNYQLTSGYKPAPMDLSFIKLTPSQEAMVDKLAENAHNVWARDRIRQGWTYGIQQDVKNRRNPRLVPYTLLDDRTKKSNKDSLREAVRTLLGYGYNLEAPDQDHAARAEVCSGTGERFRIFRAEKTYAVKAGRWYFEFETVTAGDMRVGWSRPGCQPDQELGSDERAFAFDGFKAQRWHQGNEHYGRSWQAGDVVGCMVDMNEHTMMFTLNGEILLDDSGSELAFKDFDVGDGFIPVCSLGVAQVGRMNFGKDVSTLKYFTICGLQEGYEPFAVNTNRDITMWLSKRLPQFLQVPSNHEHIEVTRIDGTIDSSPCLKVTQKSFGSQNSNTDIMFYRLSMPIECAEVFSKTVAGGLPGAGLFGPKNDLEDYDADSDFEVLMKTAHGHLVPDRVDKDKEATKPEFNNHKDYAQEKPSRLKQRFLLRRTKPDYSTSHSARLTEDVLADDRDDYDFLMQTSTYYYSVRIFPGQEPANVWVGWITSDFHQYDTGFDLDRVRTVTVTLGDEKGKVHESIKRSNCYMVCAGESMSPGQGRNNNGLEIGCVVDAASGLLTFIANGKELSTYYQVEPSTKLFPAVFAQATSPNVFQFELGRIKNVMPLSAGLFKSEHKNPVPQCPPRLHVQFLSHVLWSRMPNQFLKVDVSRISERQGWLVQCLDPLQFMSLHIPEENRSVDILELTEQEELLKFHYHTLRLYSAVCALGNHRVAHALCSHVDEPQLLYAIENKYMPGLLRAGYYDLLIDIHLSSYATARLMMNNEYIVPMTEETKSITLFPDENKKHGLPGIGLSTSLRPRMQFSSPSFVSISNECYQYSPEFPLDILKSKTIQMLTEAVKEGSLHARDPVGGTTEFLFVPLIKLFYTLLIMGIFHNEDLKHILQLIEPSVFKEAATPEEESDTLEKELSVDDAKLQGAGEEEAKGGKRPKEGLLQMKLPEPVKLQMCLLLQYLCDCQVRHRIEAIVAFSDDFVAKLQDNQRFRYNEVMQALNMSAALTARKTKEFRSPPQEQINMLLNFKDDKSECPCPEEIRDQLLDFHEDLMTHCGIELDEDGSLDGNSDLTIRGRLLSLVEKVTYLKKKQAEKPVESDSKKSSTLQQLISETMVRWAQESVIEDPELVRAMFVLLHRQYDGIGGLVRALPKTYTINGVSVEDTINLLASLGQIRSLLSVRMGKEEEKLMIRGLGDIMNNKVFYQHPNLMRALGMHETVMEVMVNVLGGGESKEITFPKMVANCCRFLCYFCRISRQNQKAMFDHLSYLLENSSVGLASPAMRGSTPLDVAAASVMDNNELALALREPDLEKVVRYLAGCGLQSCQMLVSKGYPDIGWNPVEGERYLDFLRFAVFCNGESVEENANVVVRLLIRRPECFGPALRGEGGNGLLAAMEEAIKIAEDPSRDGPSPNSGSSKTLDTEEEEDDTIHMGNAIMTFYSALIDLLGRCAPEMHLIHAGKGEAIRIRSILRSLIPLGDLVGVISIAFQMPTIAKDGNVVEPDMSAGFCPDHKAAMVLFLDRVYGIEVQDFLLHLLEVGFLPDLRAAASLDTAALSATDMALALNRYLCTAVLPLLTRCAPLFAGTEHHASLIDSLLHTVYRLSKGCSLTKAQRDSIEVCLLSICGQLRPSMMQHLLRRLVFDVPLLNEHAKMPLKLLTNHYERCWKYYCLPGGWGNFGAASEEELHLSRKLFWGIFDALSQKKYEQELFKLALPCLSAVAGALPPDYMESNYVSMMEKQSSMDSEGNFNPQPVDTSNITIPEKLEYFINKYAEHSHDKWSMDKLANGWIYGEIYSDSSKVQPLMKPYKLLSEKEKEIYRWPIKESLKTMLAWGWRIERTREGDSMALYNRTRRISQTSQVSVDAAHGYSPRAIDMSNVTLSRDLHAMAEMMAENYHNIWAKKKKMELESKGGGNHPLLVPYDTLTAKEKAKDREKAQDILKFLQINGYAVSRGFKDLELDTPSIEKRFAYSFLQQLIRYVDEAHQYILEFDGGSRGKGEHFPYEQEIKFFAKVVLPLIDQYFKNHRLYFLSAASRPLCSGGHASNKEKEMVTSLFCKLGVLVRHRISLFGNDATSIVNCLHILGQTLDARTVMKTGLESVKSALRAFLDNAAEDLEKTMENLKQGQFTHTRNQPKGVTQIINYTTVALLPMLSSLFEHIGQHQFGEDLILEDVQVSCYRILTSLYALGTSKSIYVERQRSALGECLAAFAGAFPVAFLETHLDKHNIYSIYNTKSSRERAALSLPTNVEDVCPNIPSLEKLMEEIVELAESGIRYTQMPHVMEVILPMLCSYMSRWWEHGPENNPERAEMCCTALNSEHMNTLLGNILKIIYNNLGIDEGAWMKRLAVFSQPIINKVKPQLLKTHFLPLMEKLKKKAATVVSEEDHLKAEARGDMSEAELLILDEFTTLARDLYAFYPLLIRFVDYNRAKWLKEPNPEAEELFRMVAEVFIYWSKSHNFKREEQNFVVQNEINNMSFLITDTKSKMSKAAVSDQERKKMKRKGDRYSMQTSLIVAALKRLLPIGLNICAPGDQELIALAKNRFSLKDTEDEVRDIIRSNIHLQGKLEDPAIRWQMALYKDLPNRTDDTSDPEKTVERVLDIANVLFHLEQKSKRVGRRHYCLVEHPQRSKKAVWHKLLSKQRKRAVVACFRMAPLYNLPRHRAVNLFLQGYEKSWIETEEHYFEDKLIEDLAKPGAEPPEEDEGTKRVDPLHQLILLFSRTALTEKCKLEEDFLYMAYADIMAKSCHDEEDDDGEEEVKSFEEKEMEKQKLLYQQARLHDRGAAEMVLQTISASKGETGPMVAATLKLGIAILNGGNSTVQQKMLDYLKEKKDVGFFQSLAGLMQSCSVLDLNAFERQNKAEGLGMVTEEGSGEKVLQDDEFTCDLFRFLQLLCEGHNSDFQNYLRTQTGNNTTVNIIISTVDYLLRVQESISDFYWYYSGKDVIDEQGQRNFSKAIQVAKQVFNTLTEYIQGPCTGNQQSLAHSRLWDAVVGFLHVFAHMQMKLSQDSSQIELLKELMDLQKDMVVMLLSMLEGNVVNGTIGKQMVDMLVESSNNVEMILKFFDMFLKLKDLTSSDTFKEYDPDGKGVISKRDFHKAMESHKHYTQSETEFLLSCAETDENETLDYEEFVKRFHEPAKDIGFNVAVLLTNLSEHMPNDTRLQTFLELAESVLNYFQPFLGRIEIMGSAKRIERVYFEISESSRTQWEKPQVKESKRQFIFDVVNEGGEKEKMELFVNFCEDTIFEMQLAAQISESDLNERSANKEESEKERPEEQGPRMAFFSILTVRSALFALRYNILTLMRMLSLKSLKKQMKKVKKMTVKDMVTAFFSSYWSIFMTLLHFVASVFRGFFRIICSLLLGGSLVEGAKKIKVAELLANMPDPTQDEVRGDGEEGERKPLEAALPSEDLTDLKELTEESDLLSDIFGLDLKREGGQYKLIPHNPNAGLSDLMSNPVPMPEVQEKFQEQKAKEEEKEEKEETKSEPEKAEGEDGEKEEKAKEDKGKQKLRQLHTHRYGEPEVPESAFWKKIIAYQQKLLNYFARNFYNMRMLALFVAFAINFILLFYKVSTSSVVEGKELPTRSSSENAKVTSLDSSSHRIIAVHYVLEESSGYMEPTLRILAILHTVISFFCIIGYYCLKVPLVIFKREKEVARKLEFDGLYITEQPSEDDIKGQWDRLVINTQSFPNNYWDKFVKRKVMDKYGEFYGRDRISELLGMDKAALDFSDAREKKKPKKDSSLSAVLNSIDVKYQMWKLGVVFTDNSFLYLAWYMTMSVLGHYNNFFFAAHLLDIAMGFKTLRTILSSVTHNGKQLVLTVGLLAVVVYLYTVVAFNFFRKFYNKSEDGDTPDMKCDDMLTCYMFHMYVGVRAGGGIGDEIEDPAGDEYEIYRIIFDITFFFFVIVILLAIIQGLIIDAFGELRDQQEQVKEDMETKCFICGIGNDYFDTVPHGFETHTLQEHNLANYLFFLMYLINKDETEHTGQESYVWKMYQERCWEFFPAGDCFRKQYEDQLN
UniProt P68106: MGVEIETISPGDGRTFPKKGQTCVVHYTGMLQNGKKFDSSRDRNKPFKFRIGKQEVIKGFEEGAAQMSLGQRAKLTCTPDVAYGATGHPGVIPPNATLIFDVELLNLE

Target: ryanodine receptor 2 (RyR2), human (human (endogenous in pulmonary arteries)) (UniProt Q92736)
Assay: co-IP; PA homogenates (200 ug) / SR membrane preparations; RyR2 precipitated with anti-RyR2 antibody and protein-G at 4 °C overnight, blotted with anti-RyR2 and anti-FKBP12.6; tissue from normoxic and chronic-hypoxia mice (PA and mesentery arteries), also after FK506 (0.05 or 1 mg/kg/d), S107 (20 mg/kg/d) or RISP knockdown in vivo; human PAs from PH patients and non-PH controls

- binding: binds
Substance: FK506 binding protein 12.6 (FKBP12.6), human (from UniProt P68106 1-108)
